In PMC4457860, “In Vitro Interaction of the Housekeeping SecA1 with the Accessory SecA2 Protein of Mycobacterium tuberculosis” (PLoS ONE, 2015):
No constants are given. Whether binding was seen depends on the method and setting. Where a sequence is shown, tags or fusion partners need not be part of it.

Target: T1, Mycobacterium tuberculosis SecA2(S802C) labeled with Cy5 (Mycobacterium tuberculosis strain H37Rv) (UniProt P9WGP3)
T1 sequence (chain, Cy5 (Cy5-maleimide label)): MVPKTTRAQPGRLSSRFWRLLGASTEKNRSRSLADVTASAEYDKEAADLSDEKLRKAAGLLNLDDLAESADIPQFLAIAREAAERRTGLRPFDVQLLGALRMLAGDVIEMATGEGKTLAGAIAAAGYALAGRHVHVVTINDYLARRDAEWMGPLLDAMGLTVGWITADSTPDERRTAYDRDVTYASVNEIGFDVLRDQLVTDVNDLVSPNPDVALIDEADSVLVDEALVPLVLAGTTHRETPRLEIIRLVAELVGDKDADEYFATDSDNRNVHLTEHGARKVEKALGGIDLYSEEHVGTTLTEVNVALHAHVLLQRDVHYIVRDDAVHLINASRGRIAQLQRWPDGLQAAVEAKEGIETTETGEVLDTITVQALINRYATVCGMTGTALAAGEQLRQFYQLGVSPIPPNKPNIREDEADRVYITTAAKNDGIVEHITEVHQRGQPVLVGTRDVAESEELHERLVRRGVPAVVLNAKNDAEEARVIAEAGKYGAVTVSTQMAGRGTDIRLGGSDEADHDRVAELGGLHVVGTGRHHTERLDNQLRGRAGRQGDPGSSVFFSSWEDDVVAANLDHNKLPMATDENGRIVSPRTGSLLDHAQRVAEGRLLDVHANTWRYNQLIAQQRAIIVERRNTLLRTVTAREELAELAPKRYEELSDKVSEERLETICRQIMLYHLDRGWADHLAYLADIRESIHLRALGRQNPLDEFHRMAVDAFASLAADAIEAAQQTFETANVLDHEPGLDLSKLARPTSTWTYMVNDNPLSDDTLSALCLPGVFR
Experiment: MST; Monolith NT.115; unlabeled protein (1 nM to 5 μM) titrated into 25 nM Cy5-labeled protein, mixed in 300 mM KCl, then diluted into low salt buffer (25 mM HEPES-KOH pH 7.5, 30 mM KCl, 2 mM MgCl2, 50 mM arginine); Hill fit, apparent Kd; dimer to monomers; both purified

Escherichia coli SecA (unlabeled) (from UniProt P10408 1-901)
binding: no binding (tested: 1 nM to 5 μM (methods))
